Experimental data as given in patent US12195755B2, “Placental lipid bilayer for cell-free molecular interaction studies” (priority 2019, dated 2025).

Test: QCM-D interaction with supported placental lipid bilayers
Design: species or system human
Conditions: for interaction with supported trophoblast bilayers compared to amBisome®: 0.1 mg/mL amphotericin B, QCM-D frequency and dissipation changes

In the case of `CCCCC(CC)COC(=O)c1ccccc1C(=O)OCC(CC)CCCC` (stereo not drawn) [DEHP, di(2-ethylhexyl) phthalate], the adsorption to bilayers (DEHP 200 μM in 1% DMSO, HTR-8, TCL-1 and primary bilayers) is reported as “adsorbed to all three of the bilayers”.
For `C[C@@H]1[C@H](O)[C@@H](C)/C=C/C=C/C=C/C=C/C=C/C=C/C=C/[C@H](O[C@@H]2O[C@H](C)[C@@H](O)[C@H](N)[C@@H]2O)C[C@@H]2O[C@](O)(C[C@@H](O)C[C@@H](O)[C@H](O)CC[C@@H](O)C[C@@H](O)CC(=O)O[C@H]1C)C[C@H](O)[C@H]2C(=O)O` [amphotericin B], the “interaction with supported trophoblast bilayers compared to amBisome®” value was “interacts less” and the “interaction with supported trophoblast bilayers compared to amBisome®” value (listed as Amphotericin B) was “interacted more”.
